This is an account of results in publication PMC10163288.

The chains are these.
B1: il2ra_site1_1z92_sap_9_mot_HHH_b1_04604_af2_000000029_0001_42_56_H_._3020bb65e3c0c4c1750efda2a61ed53f_0001_1_af2_0001_0000300015_0000001_0_0001 (protein)
chain: SEEYLEEQLRRKLELGNIEDAARALFKFIAAAAGDPEQAEEFLEELLKRAGVPPEVIEKILEEAK
B2: il2ra_site2_3nfp_sap_15_mot_HHH_b1_02990_000000128_0001_41_58_H_._HHH_b1_03794_0001_0000400021_0000001_0_0001 (protein)
chain: SEAEEIIKLIAELLGTPPERVRERVEDAAEIVNRPPEEAAAYLLAQVALELGDPELEKEAKRLSR
B3: il2ra_site1_2b5i_normal_mot_HHH_b1_00983_000000007_0001_1_17_H_._HHH_b2_03390_0001_0000100008_0000001_0_af2pred_dldesign_0_af2pred (protein)
chain: SSSSDPYDEVEELYKEALRLYRAGKKEEAKKLLEKALELAEKAGDKVAVADLKYFLSLVKSSSSS
B4: il2ra_site1_2b5i_normal_mot_ems_3hM_3687_af2_000000248_0001_45_64_H_._HHH_b2_01457_af2_0001_0000200017_0000001_0_af2pred_dldesign_0_af2pred (protein)
chain: SSSSSPLDERVEAALARARELKEQGKIREALELLEKLHKELSELGLEDLEDRVYELASELSSSSS
B5: il2ra_site2_2erj_sap_17_mot_HHH_b1_00941_000000060_0001_45_58_H_._HHH_b2_05377_0001_0000700053_0000001_0_0001 (protein)
chain: SSSSTEEYHEVYRIVLELLREFNLSREDAAKLSELAEELLKRGVSLEEIEELLEEQAHRLSSSSS
B6: il2ra_site1_3nfp_sap_15_mot_16934e337390fad51c35c10e6cd388ee_0001_1_000000171_0001_52_65_H_._HHH_b2_07272_af2_0001_0000200009_0000001_0_0001_af2pred_0001_af2pre … (protein)
chain: SSSSSDNEVSRRIDELLKEALKIEDEEEVRRLLEEAQELAEEANSPIAERLVELYERQILSSSSS
B7: il2ra_site1_3nfp_sap_12_mot_HHH_b1_02434_000000128_0001_1_17_H_._HHH_b2_01122_0001_0000400019_0000001_1_0001_af2pred_0001_af2pred_1 (protein)
chain: SSSSDTTKEISEISREIIKLLHEGDEEEARRLIEELRELAEERNDETAKLFVERLKRRVNSSSSS
B8: il2ra_site1_1z92_normal_mot_43152d1d296b358565056a4a32fd9b81_0001_1_000000297_0001_52_65_H_._HEEHE_0134_0001_0000200031_0000001_0_af2pred_dldesign_0_af2pred (protein)
chain: SEEEVITEAIRYIAERVGVPRVEVKIENGKVTVTFHGDPERCAAAAKLITRLLDAAGIEAEVVVR
B9: il2ra_site1_1z92_sap_13_mot_HHH_b1_01765_000000215_0001_19_35_H_._HHH_b2_01532_0001_0000100002_0000001_0_0001_af2pred_0001_af2pred (protein)
chain: SSSSSSDFHEILELFEKAEKIKDKEEVKEILEEALKLAEEAGDEVTAELIEQMLERLKSSSSSSS
B10: il2ra_site2_2erj_normal_mot_HHH_b2_00593_000000044_0001_44_57_H_._HHH_b2_04281_af2_0001_0000300021_0000001_0 (protein)
chain: SSSSDFVREVFELLQELSRLVQEGDEEEVRRVAEEVRRLAEEAKSPNLEESVEYLERLLLSSSSS
B11: il2ra_site1_3nfp_sap_14_mot_119b7766384adbe86006a62bce89dba1_0001_af2_000000052_0001_18_32_H_._HHH_b2_00597_0001_0000100003_0000001_0_0001_af2pred_0001_af2pred_ … (protein)
chain: SSSSDEEEHRKVEEILEEAKHIEDPKEADEVLKEALRLAREINDPEAIRLVEEVLRRLAKSSSSS
B12: il2ra_site2_3nfp_normal_mot_HHH_b1_04862_af2_000000143_0001_39_56_H_._HHH_b2_01567_af2_0001_0000900042_0000001_1 (protein)
chain: SSSSDEEARELLEEAEELLKDERLAEEAHEILMRAAAIAFQEGNFELFAEITELLEEVVQSSSSS
B13: il2ra_site1_2b5i_sap_10_mot_HHH_b2_04463_000000268_0001_43_57_H_._HHH_b2_06355_af2_0001_0000200025_0000001_0_0001 (protein)
chain: SDEEALKMAIEDVSKFARIKEFEIETHNGKITVEVRGDDNAAKAAVRMIEQLARIAGIDLEVEVE
B14: il2ra_site1_3nfp_sap_13_mot_0eddeacbb14b769e73e254714f31e2f9_0001_af2_000000052_0001_37_51_H_._3685a7fc0315cffcf770f862f50b42b9_0001_1_0001_0000400028_0000001_0 … (protein)
chain: SDLEEEVRELIELIKEFAEERNSPVAKLYAELLEEAARRAEERNDERSLRYVLRSARLALRSGSS
B15: il2ra_site2_3nfp_normal_mot_HHH_b1_07543_000000150_0001_38_55_H_._HHH_b2_03463_0001_0000300019_0000001_0 (protein)
chain: SSSSSHQEEYLRAALLLAREAIERGDEEFARRLLKLVIKAAEDLGDEEVLEEAQRLLEEISSSSS
B16: il2ra_site2_2erj_sap_33_mot_3b06bd03f1c6bceadc68eab912867b79_0001_000000296_0001_36_50_H_._HHH_b1_00097_af2_0002_0000100006_0000001_0_0001 (protein)
chain: SSSSDEELEQVVEELVKEFNLDEYAKSFLERLLEALEEDGVSEEEIKKALKAAAEIVAKVSSSSS
B17: il2ra_site1_2b5i_sap_13_mot_HHH_b2_02828_af2_000000092_0001_43_56_H_._HHH_b1_04425_af2_0001_0000300015_0000001_0_0001_af2pred_dldesign_0_af2pred (protein)
chain: SSSSDPYDEVYDLASEALRLYKAGKKEEAKKLLEKALELAKKAKDEKLIKELEYLLSLVESSSSS
B18: il2ra_site2_3nfp_normal_mot_HHH_b1_01086_000000225_0001_20_36_H_._HHH_b1_01202_0001_0000200004_0000001_1_af2pred_0001_af2pred_swapped (protein)
chain: SSSSDHEKFALRLLLLEIEVAIEAGDEEKVKRLIELLRRAIERLNDEEMEEELERLERELSSSSS
B19: il2ra_site2_2erj_sap_25_mot_1d6b5438aa0d917bea2962dcb63062e6_0001_1_af2_000000236_0001_39_63_H_._HHH_b2_01936_0001_0000700043_0000001_0_0001_af2pred_0001_1_af2p … (protein)
chain: SSSSSDEEETQERVEELLERAKRIPDLREALKLLEEAAELAAKNDDPELVELVLEEARKHSSSSS
B20: il2ra_site2_2erj_sap_17_mot_HHH_b1_04154_000000022_0001_1_15_H_._HHH_b1_03521_0001_0000100001_0000001_0_0001 (protein)
chain: SSSSSDLHELYRLLNELSHALANGDEELFEKLAEEVRELAEKLQSDNVEEMIRNMEKILHSSSSS
B21: il2ra_site2_3nfp_sap_20_mot_HHH_b1_00041_000000218_0001_43_58_H_._HHH_eva_0362_af2_0001_0000100003_0000001_0_0001 (protein)
chain: SSSSKSEEYLRIALELLREAEEAGDEESARSIAEAIAAAAETHGDEETLREAEELLERLNSSSSS
B22: il2ra_site2_3nfp_sap_22_mot_HHH_b2_06150_000000217_0001_39_53_H_._86920ccf215a9397388743310839e631_0001_1_0001_0000400018_0000001_0_0001 (protein)
chain: SSSSDEERIELLLEAAQLLLENIPDPEERRELEEAREELEREGDPRLVMKLYEIALRIYLSSSSS
B23: il2ra_site1_1z92_sap_18_mot_HHH_b2_04974_000000012_0001_1_17_H_._HHH_b2_04268_af2_0001_0000300036_0000001_1_0001_af2pred_0001_af2pred_swapped (protein)
chain: DEEELERLLRELIPDPELVKTLKRLFERSAELGIPPEKILRALLRAAERAGSEEAAEALEIILRR
B24: il2ra_site1_3nfp_normal_mot_HHH_b2_06121_000000007_0001_22_38_H_._HHH_b2_01497_af2_0001_0000100001_0000001_0_af2pred_0001_af2pred (protein)
chain: SSSSSEVQERVEELLEEAEELIKEGDYEEAREVIEEAHRLIRETGDRELFELLLEAIRRLSSSSS

The other results are listed elsewhere or left out.

In the experiment the target is il2ra, P01589. The experiment is described as follows: yeast display titration.
As for B1, the “apparent Kd” value is “inactive: no binding seen”.
The value for B2 was “inactive: no binding seen”.
In the case of B3, the “apparent Kd” value is “inactive: no binding seen”.
The value for B4 was “inactive: no binding seen”.
The value for B5 was “inactive: no binding seen”; that for B6 was “inactive: no binding seen”.
As to B7, the “apparent Kd” value was “inactive: no binding seen”.
As for B8, the “apparent Kd” value is “inactive: no binding seen”.
The value for B9 was “inactive: no binding seen”; that for B10 was “inactive: no binding seen”.
The value for B11 was “inactive: no binding seen”.
Regarding B12, the “apparent Kd” value is “inactive: no binding seen”.
For the molecule B13, the “apparent Kd” value was “inactive: no binding seen”.
In the case of B14, the “apparent Kd” value is “inactive: no binding seen”.
The value for B15 was “inactive: no binding seen”; that for B16 was “inactive: no binding seen”.
For B17 the value was “inactive: no binding seen”; for B18, “inactive: no binding seen”; for B19, “inactive: no binding seen”.
Turning to B20, the “apparent Kd” value is “inactive: no binding seen”.
B21: the “apparent Kd” value was “inactive: no binding seen”.
For B22 the value was “inactive: no binding seen”.
Consider B23, for which the “apparent Kd” value is “inactive: no binding seen”.
The value for B24 was “inactive: no binding seen”.
